From PubChem BioAssay AID1794845 (National Center for Advancing Translational Sciences (NCATS), 2023)
Hit rate of the full screen: of about 6,900 compounds, fewer than 10 were called active. Calls come from the whole dose curve; as a rule, active = well fitted curve in the direction sought with a large enough effect; inconclusive = small, poorly fitted or top-dose-only effect, or another doubt; inactive = no such curve, though single readings can be large or run the other way. Some of the results follow.

Chains of the proteins cited; added tags and fusions are not shown. Lines headed by an entry give the natural chain unless they say otherwise; changes in a name come on top.
UniProt C7C422: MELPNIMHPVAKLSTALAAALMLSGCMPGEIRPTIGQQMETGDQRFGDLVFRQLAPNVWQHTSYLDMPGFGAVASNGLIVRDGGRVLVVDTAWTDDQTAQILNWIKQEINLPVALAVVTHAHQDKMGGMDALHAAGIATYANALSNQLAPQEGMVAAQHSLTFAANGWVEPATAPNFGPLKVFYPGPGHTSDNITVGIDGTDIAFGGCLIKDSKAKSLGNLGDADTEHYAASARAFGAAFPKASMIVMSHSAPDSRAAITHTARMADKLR

Target: Metallo-beta-lactamase type 2 (Klebsiella pneumoniae) (UniProt C7C422)
Test: qHTS to identify inhibitors of the New Delhi Metallo-beta-lactamase (NDM): primary screen against the NCATS Gemini Collection; note: % of control where 0% means no effect
Settings: NDM-1 enzyme, meropenem hydrolysis, absorbance 300 nm; at 38.4 µM (top of the series) unless noted
Summary of the method: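 NDM-1 at 2 nM final in 50 mM HEPES pH 7.0, 1 uM ZnSO4, 0.01% Tween20, preincubated >30 min with compound. Meropenem 50 uM final added; absorbance at 300 nm after 30 min.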

| Structure (SMILES) | activity % (negative = inhibition) |
| --- | --- |
| COCCn1c(C)cnc1CC1CCN(C(=O)C2CC2)CC1 | inactive: 0.385% |
| CC(=O)N1CCC(N2C[C@@H]3OCC(=O)N(Cc4ccccn4)[C@@H]3C2)CC1 | inactive: 2.96% [at 57.5 µM] |
| CN1CC2(CCN(Cc3ccc(-c4ccc(Cl)cc4)o3)C2)OC1=O (centres undefined) | inactive: 30.2% |
| COc1ccc2nc(C[C@@H]3C[C@@H](C(C)C)[C@H](CNC(=O)NC4CCCCC4)C=C3C)[nH]c2c1 | inactive: -1.68% |
| COc1cccc(CCc2ccccc2C(=O)N2CC[C@H](CO)[C@@H](O)C2)c1 | inactive: 0.647% |
| COc1ccc(Cn2c3c(c(=O)n2Cc2ccccc2)CCN(C(=O)CCc2cccnc2)C3)cc1 | inactive: -1.23% |
| Cn1cccc1CN[C@H]1[C@H](O)[C@@H](N2CCCC2)[C@@H]2OC[C@H]1O2 | inactive: 0.388% [at 57.5 µM] |
| CCOc1cc(C)c(CN2CCCC(O)(CN(C)C)C2)cc1C(C)C (centres undefined) | inactive: -9.93% |
| COc1ccc(C(=O)N[C@H]2COC[C@H]2Cc2cc(C)no2)c(OC)n1 | inactive: 15.4% |
| O=C(O)c1ccc(-c2nnc3ccc(NC(=O)C4CCC4)cn23)cc1 | inactive: 21.8% |
| CC(C)(C)C1CN(Cc2cccs2)C(=O)c2cccnc2O1 (centres undefined) | inactive: 0.186% [at 16.1 µM] |
| COc1ccc(S(=O)(=O)N2C[C@@H](F)C[C@H]2C(=O)N2CCOCC2)cc1 | inactive: 3.6% |
| COCC1CN(C(C)=O)CC12CCN(S(=O)(=O)c1ccc(OC)cc1)CC2 (centres undefined) | inactive: 2.14% |
| CC(=O)NC1CCN(C(=O)Cc2c(C)[nH]c3c(C)ccc(C)c23)C1 (centres undefined) | inactive: -5.09% |
| O=C(CC1=CCCCC1)NC1CCc2n[nH]c(=O)n2CC1 (centres undefined) | inactive: 11.9% |
| O=C(NC1CCCCC1)c1cc(-c2ccc(F)cc2)c2nncn2n1 | inactive: 14.1% |
| CCC(CC)CN1CC2(CCN(C(=O)CCc3nncn3C)CC2)OC1=O | inactive: -0.564% |
| CN(Cc1ccc(-c2ccccc2)cc1)C(=O)C1CC1 | inactive: -1.07% [at 57.5 µM] |
| C[C@H](C(=O)N1Cc2ccccc2CC2(CCN(Cc3ccncc3)C2)C1)c1ccccc1 (some centres undefined) | inactive: 8.07% |
| Cc1ccc(-c2noc([C@@H]3CCCN3C(=O)CCCc3ccccc3)n2)cc1 | inactive: 21.9% |
| CN1C(=O)N(C)C2(CCN(CCc3ccccc3)C2)C1=O (centres undefined) | inactive: 0.235% |

Structures shown so far that contain fluorine, in the order listed:

| Structure (SMILES) | activity % (negative = inhibition) |
| --- | --- |
| COc1ccc(S(=O)(=O)N2C[C@@H](F)C[C@H]2C(=O)N2CCOCC2)cc1 | inactive: 3.6% |
| O=C(NC1CCCCC1)c1cc(-c2ccc(F)cc2)c2nncn2n1 | inactive: 14.1% |

More records follow:

| Structure (SMILES) | activity % (negative = inhibition) |
| --- | --- |
| O=c1n(CC2CC2)nc2n1CCN(C1CCCC1)CC2 | inactive: -1.41% |
| CC1(C(=O)N2CCC(C3CCN(S(C)(=O)=O)CC3)C2)CCOCC1 (centres undefined) | inactive: 0.103% |
| O=C(N[C@@H]1CN(C(=O)Cn2c(=O)oc3ccccc32)CC[C@@H]1CO)c1ccccc1 | inactive: 4.87% |
| Cc1ccc2c(c1)c(C(=O)N[C@H](c1cnn(C)c1)C1CC(O)C1)nn2C (some centres undefined) | inactive: 28% |
| CS(=O)(=O)N[C@H]1CCN2C(=O)c3cc(-c4cccc(C(F)(F)F)c4)ccc3NC(=O)[C@@H]2C1 | inactive: 13.8% |
| COC(=O)[C@@H]1CN(C(=O)Nc2ccccc2)CCN1C(C)=O | inactive: 1.62% [at 57.5 µM] |
| COc1ccc(OC2CN(CC3CC3)C2)cc1 | inactive: -0.736% [at 77.1 µM] |
| CC(C)OCCCNC(=O)c1cc(C2CC2)nc2onc(C3CCNC3)c12 (centres undefined) | inactive: 4.11% |
| O=C(O)CO[C@@H]1COCC[C@H]1NC(=O)c1ccccc1-c1ncn[nH]1 | inactive: 6.48% |
| OCc1ccc(CN2C[C@H](O)C[C@H]2c2nc(-c3ccc(F)cc3)no2)o1 | inactive: 7.52% [at 57.5 µM] |
| CCN1CCN(C(=O)C23CCC=C2N(C2CCCC2)C(=O)CC3)CC1 (centres undefined) | inactive: 11.7% |
| Cc1ccc([S+](=O)([O-])N2CCN(c3nc4ncccc4o3)CC2)cc1 | inactive: -0.878% |
| O=C(CCCn1cncn1)NC1CC(c2cc(N3CCOCC3)ncn2)C1 (centres undefined) | inactive: 1.62% |
| COc1ccc(NC(=O)Cn2c(-c3ccc(Cl)cc3)nc(C)cc2=O)cc1OC | inactive: 0.0347% |
| COC1CN(c2cccc(F)c2)C12CCN(C(=O)NCC(C)C)CC2 (centres undefined) | inactive: 2.05% |
| CCn1cc(C(=O)N2C[C@@H](COC)[C@H](C(=O)NC)C2)cn1 | inactive: -3.54% |
| Cc1noc(C)c1C(=O)N1CCN(c2ccc(C=O)cc2)C(=O)C1 | inactive: 2.02% |
| CN1C(=O)[C@H]2CN(Cc3cn[nH]c3-c3ccc(F)cc3)C[C@H]2C1=O | inactive: -1.45% |
| CN(Cc1cnn(-c2ccccc2)c1)Cc1cc2ccccc2[nH]c1=O | inactive: -7.55% |
| CCCc1nc(C(=O)N2CCC3(CCCNC3)C2)cs1 (centres undefined) | inactive: 13.1% |
| CC(C)NC(=O)NCC1Cn2cccc2C(=O)N1Cc1ccccc1 (centres undefined) | inactive: 6.71% |

| Structure (SMILES) | activity % (negative = inhibition) |
| --- | --- |
| COCCN1CCCCCC(O)c2cc(C(=O)N(C)CCCc3c(C)nn(C)c3C)ccc21 (centres undefined) | inactive: -2.8% |
| CCC(=O)N(C1CCOCC1)C1CCN(S(=O)(=O)c2ccc(Cl)c(C)c2)CC1 | inactive: -1.77% |
| O=C(CCC1CCCC1)NCc1nnc2cc(-c3nc(C4CC4)no3)ccn12 | inactive: -1.8% |
| O=c1c2c(nc3cc[nH]n13)CN(S(=O)(=O)c1cccc(C(F)(F)F)c1)CC2 | inactive: 4.85% |
| O=c1cc(N2CCOCC2)oc2c(Nc3ccccn3)nccc12 | inactive: 10.6% [at 57.5 µM] |
| O=C1CCN(Cc2ccncc2)CCCC(C(=O)N2CCCC2)CCN1 (centres undefined) | inactive: 11.5% |
| O=C(c1ccccn1)N1CCC2(CNc3ccccc3[S+](=O)([O-])N2)C1 (centres undefined) | inactive: 24.1% |
| COCc1cn2c(=O)n(C)cc(-c3ccnc(OC)c3)c2n1 | inactive: 13.5% [at 57.5 µM] |
| COC[C@@H]1CN(C(=O)c2cc(OC)cc(OC)c2)C[C@H]1c1ccncc1 | inactive: -1.24% |
| O=C(C1CCCCC1)N1CCC(n2cc(-c3nc(-c4ccccc4)no3)nn2)CC1 | inactive: 14.9% |
| CC1(C(=O)Nc2ccccc2)CCc2cnc(N3CCOCC3)nc21 (centres undefined) | inactive: 2.42% [at 57.5 µM] |
| CCC#CCN1CCc2ccccc2N(CC(O)COCc2ccco2)CCC1=O (centres undefined) | inactive: 32.1% [at 16.1 µM] |
| CCNC(=O)CC1COCCN1C(=O)c1csc(-c2cccs2)n1 (centres undefined) | inactive: 19.4% |
| CN1C[C@@H](NC(=O)c2ccc(C#N)cc2)C[C@H]1c1nc(Cc2ccccc2)no1 | inactive: 1.33% [at 57.5 µM] |
| COCCc1noc(-c2ccc(Cn3nc(C)cc3C)cc2)n1 | inactive: 11.9% |
| COCc1ccc(C(=O)N2CCN(CCO)CC(O)C2)cc1 (centres undefined) | inactive: 3.88% |
| CCOc1ccc2ccccc2c1C(C(=O)O)N1CCN(CC2CC2)CC1 (centres undefined) | inactive: 9.88% |
| CN1CCN(C(=O)CC[C@@H]2CNC(=O)[C@@H]3C[C@H](NC(=O)c4cccc(F)c4)CN23)CC1 | inactive: -0.0255% [at 57.5 µM] |
| O=C(c1ccc(Br)cc1)N1CCN(c2cc(-c3ccccc3)[nH]n2)CC1 | inactive: 2.1% |
| Cc1csc(NC(=O)c2nc3c(o2)CCN(Cc2ccccc2F)CC3)n1 | inactive: 19.1% [at 57.5 µM] |
| COC1CCN(C(=O)Nc2ccccc2)CC(=O)N(C)c2ccccc21 (centres undefined) | inactive: -1.13% |

| Structure (SMILES) | activity % (negative = inhibition) |
| --- | --- |
| CC(C)N1CCN(C(=O)c2csc(N3CCN(c4cccc(Cl)c4)CC3)n2)CC1 | inactive: -1.73% |
| O=[S+]1([O-])[C@@H](c2ccccc2)[C@H](COCc2ccccc2)CN1C1CC1 | inactive: 33.1% |
| Cc1noc(C)c1CC(=O)N1CC(=O)N(C2CCCCC2)CC(OCc2ccccc2)C1 (centres undefined) | inactive: 4.51% |
| Cn1c(Cn2ccnc2)nnc1C1CC(NC(=O)c2ccc(CO)o2)C1 (centres undefined) | inactive: 0.138% |
| CCn1cc(S(=O)(=O)NCC2Cn3cccc3CN2Cc2ccccc2)cn1 (centres undefined) | inactive: 11.1% |
| Cn1cc(-c2ccsc2)c2nc(CN3CCNC(=O)C3)cn2c1=O | inactive: 12.2% [at 57.5 µM] |
| CN1C[C@H](C(=O)Nc2ccncn2)C[C@H]1c1cccc(C(F)(F)F)c1 | inactive: 11% [at 57.5 µM] |
| Cc1cncc(C(=O)N2CC(CO)C3(CCNCC3)C2)c1 (centres undefined) | inactive: 14.2% |
| O=C(c1ccncc1)N1CCC2(CC1)CN(c1ncccn1)CC2CO (centres undefined) | inactive: 1.06% |
| OC[C@@H]1CNC[C@H]1C1CCN(Cc2ccncc2F)CC1 | inactive: 32.4% |
| O=C(CCCc1cccs1)N1CCCC(O)(CN2CCCC2)C1 (centres undefined) | inactive: 3.9% |
| Cc1ccc(-c2cc(-c3cccnc3)nc3c(C)noc23)c(C)c1 | inactive: 15.2% [at 57.5 µM] |
| CCc1noc([C@@H]2CC(F)(F)CN2C(=O)c2ccncc2F)n1 | inactive: 1.07% |
| CC(=O)NCCC(=O)N1CCCCC1C(=O)Nc1ccc(-n2nc(C)cc2C)cc1 (centres undefined) | inactive: 2.68% |
| Cc1nonc1Cc1nc(C2CCOCC2)nn1CC1COCCO1 (centres undefined) | inactive: -2.77% |
| C[S+](=O)([O-])N1Cc2ccccc2CC2(CCN(CC3CCCCC3)CC2)C1 | inactive: -0.243% |
| c1cncc(CN2CCOC[C@H]2c2ncc(-c3cccnc3)[nH]2)c1 | inactive: 7.77% [at 57.5 µM] |
| Cc1cc(N2CCC(NCc3cc(C)nn3C)CC2)nc(-c2ccccc2)n1 | inactive: 7.57% |
| CC(C)C(=O)N[C@H]1[C@H](O)[C@H](O)C[C@@H]1c1ccc(C(F)(F)F)nc1 | inactive: 8.19% [at 57.5 µM] |
| COCC(=O)N(C[C@H]1O[C@@H](CC(=O)NC2CC2)[C@H](O)[C@@H]1O)C[C@H]1O[C@@H](CC(=O)NC2CC2)[C@H](O)[C@@H]1O | inactive: 0.867% |
| CCN1CCCC2(CCN(C(=O)CCc3n[nH]c(C)c3C)C2)C1=O (centres undefined) | inactive: -2.33% |

Nothing new here: an excerpt of the list.

| Structure (SMILES) | activity % (negative = inhibition) |
| --- | --- |
| O=C(CCCc1cccs1)N1CCCC(O)(CN2CCCC2)C1 (centres undefined) | inactive: 3.9% |
| Cc1ccc(-c2cc(-c3cccnc3)nc3c(C)noc23)c(C)c1 | inactive: 15.2% [at 57.5 µM] |
